Results as given in patent publication US20170002406.
Where a chain is given by its changes, count along the chain named. For at least one entry, the source does not settle the construct or the ends of the probe. Tags and fusion partners may be left off the protein sequences shown.

What was measured:
T4 Dda-E94C/A360C = molecular target: T1, T4 Dda-E94C/A360C (UniProt P32270); experiment: binding assay; conditions: flanked by four iSpC3 spacers on each side; nanopore (MspA) translocation; pre-incubated at room temperature; active helicase with 10 mM MgCl2, 1 mM ATP, 600 mM KCl pH 8.0; purified recombinant protein; single-stranded DNA
T1 sequence: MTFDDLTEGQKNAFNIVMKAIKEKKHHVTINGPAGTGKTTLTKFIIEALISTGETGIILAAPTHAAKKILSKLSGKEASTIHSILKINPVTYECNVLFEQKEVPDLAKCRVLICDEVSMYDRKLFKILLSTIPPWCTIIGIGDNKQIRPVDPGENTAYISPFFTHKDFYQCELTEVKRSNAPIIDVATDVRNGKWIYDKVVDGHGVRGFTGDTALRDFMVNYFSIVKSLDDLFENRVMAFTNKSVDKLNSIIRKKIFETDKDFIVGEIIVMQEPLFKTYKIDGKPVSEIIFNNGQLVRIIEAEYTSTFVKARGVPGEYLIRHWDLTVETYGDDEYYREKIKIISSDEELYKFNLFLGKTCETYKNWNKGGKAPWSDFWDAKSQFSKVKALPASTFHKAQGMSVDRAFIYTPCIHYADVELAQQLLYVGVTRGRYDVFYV

[1] = molecular target: T2, T4 Dda-E94C/C109A/C136A/A360C (UniProt P32270); experiment: binding assay; conditions: flanked by four iSpC3 spacers on each side; nanopore (MspA) translocation; active helicase with MgCl2 and ATP; purified recombinant protein; single-stranded …
T2 sequence: T1 sequence with C109A, C136A

Question: Does “TTTTTTTTTTTTTTT [DNA construct Y, T4 Dda loading region (section c)]” bind (T4 Dda-E94C/A360C)?
Answer: Result: binds

Question: Does “TTTTTTTTTTTTTTT [DNA construct Y, T4 Dda loading region (section c)]” bind [1]?
Answer: Result: binds
